PubChem BioAssay AID1259415 (National Center for Advancing Translational Sciences (NCATS), 2018)
Out of some 410,000 compounds screened, about 18,000 (4.4%) were called active. Inconclusive results, whose numbers are uncertain, are shown with a selection of clear calls. Rule as the data show it: active = activity change below about -60%; inconclusive = no clear call, values can overlap the other calls; inactive = above about -39%.

experiment: qHTS Assay for inhibitors of the human cytomegalovirus (HCMV); conditions: HFF cells, HCMV-luciferase reporter, 72 h; at 57.5 µM; hits give low values
Summary of the method: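 Luciferase read-out from HCMV-luciferase-infected HFFs (MOI 1 PFU/cell) 72 h post infection at 37C; compounds added after 16 h cell attachment; activity normalized between buffer-only basal and Salinomycin (10uM) inhibitor controls.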
% is scaled to controls: 0 for no effect and ±100 for the full control effect.

Row | SMILES | activity change, negative = inhibition
1 | Cc1cccc(OCC(=O)Nc2c(C)ccc3nsnc23)c1C | inactive: -20.5%
2 | CCC(C)CCN1C(N(C)C)=NC[C@@H]1Cc1ccccc1 (stereo not given in full) | active: -66.7%
3 | CCN(CC)CCN1C(=O)/C(=C\c2ccc(Cl)c([N+](=O)[O-])c2)SC1=Nc1ccc(OC)cc1 | active: -99.1%
4 | CCn1c(=O)oc2cc(NC(=O)CCl)ccc21 | inconclusive: -58.9%
5 | CCOC(=O)c1ccc2c(c1)n(CCCS(=O)(=O)[O-])c(/C=C/c1ccc(Cl)cc1)[n+]2CC | inconclusive: -41.6%
6 | CC1=C/C(=N\NC(=O)c2ccccc2)CC1 | inactive: 22.6%
7 | Cc1c(CC(=O)NCCc2ccccc2F)c(=O)oc2c(C)c3occ(C(C)(C)C)c3cc12 | active: -78.3%
8 | Cc1ccc(-c2nn(-c3ccccc3)cc2C(=O)Nc2ccc(C)c(S(=O)(=O)N3CCOCC3)c2)cc1 | inactive: -20.5%
9 | Cc1ccccc1NC(=O)c1ccc(F)c(S(=O)(=O)N(C)Cc2ccccc2)c1 | inconclusive: -57.9%
10 | O=C1CN(C(=O)c2ccccc2)C(c2ccccc2)c2cc(Cl)ccc2N1 (stereo not given) | inconclusive: -41.4%
11 | CCCNS(=O)(=O)c1ccc(OCC(=O)N2CCN(Cc3ccc4c(c3)OCO4)CC2)cc1 | inconclusive: -45.1%
12 | COc1ccc([C@@H]2[C@@H](C(=O)N3CCCC3)CC(=O)N2C(=O)/C=C/c2ccccc2)cc1 | inconclusive: -50.2%
13 | C=CCSc1nsc(NC(=O)Nc2cccc(C(C)=O)c2)n1 | active: -101%
14 | O=C(COC(=O)c1cc(Cl)nc(Cl)c1)Nc1ccc(Cl)c(S(=O)(=O)N2CCOCC2)c1 | inactive: -5.06%
15 | Cc1sc(NC(=O)CSc2nnc(-c3ccc(F)cc3)o2)c(C#N)c1C | inactive: 9.15%
16 | Cc1cccc(Cc2ccc3ncc(-c4cccc(C(N)=O)c4)n3n2)c1 | active: -72%
17 | Cc1ccccc1OCC(=O)Nc1ccncc1 | inconclusive: -43%
18 | Cn1c(CNC(=O)c2ccco2)nnc1SCC(=O)N1CCN(c2ccccc2)CC1 | inactive: 9.34%
19 | Oc1[nH]c2ccccc2c1N=Nc1ccc(C(F)(F)F)cn1 | inactive: 32%
20 | C/C(=N\NC(=O)c1cccc(S(=O)(=O)N2CCCC2)c1)c1ccc(C)cc1 | inactive: -35.1%
21 | CCC(C(=O)OCC(=O)NCc1ccc2c(c1)OCO2)c1ccccc1 (stereo not given) | inactive: 45.6%
22 | Cc1ccc(CNC(=O)C2CCCN(c3cnccn3)C2)cc1 (stereo not given) | inconclusive: 0%

Row | SMILES | activity change, negative = inhibition
23 | Nc1ncnc2c1ncn2[C@@H]1O[C@H](CN2CCCS2(=O)=O)[C@@H](O)[C@H]1O | inactive: 13.6%
24 | Cc1c(Cl)cccc1NS(=O)(=O)c1c(C(=O)N2CCOCC2)c(C)n(C)c1C | inconclusive: -40%
25 | CC1=CC(C)(C)Nc2ccc(OC(=O)CCN3C(=O)c4ccccc4C3=O)cc21 | active: -99.5%
26 | Cc1cn2c(=O)cc(COC(=O)c3cccc(NC(=O)COc4ccccc4Cl)c3)nc2s1 | inactive: 45.4%
27 | C/C(CC(=O)N1CCN(C=O)CC1)=N\NC(=O)c1ccc(Br)cc1 | inconclusive: -45.4%
28 | CC(C)CCNC(=O)CCCN1C(=O)c2ccccc2Sc2ncccc21 | inactive: -25.1%
29 | CCOc1ccc2nc(N/C(N)=N/S(=O)(=O)c3ccc(C)cc3)nc(C)c2c1 | inactive: 1.34%
30 | COc1cc(-c2noc(CN3CCN(c4ccccc4)CC3)n2)cc(OC)c1OC | inactive: 3.07%
31 | CC1=CC(C)(C)N2C(=O)C3(NCCc4c3[nH]c3ccccc43)c3cccc1c32 (stereo not given) | inconclusive: -43.3%
32 | COc1cccc(Nc2ncnc3ccc(Br)cc23)c1 | inconclusive: -44.5%
33 | COc1cccc(NC(=O)CSc2nc3c(oc4ccccc43)c(=O)n2Cc2ccco2)c1 | inconclusive: -46.3%
34 | CC/C(=C/c1sc2ccc(C)cc2[n+]1CCO)SC | inconclusive: -45.8%
35 | CCOc1ccccc1CNS(=O)(=O)c1ccc2c(c1)CCCN2C(C)=O | inconclusive: -41.5%
36 | Cc1nc2sc(C(c3ccco3)N3CCN(c4ccccc4F)CC3)c(O)n2n1 (stereo not given) | inconclusive: -40.8%
37 | Cc1cc(C)nc(SCC(=O)N/N=C\C(Br)=C\c2ccccc2)n1 | inconclusive: -43.3%
38 | COc1ccc(N2CCN(CC(O)COC(c3ccc(F)cc3)c3ccc(F)cc3)CC2)cc1 (stereo not given) | inactive: -28.5%
39 | Cc1ccccc1-n1c(SCC(=O)Nc2ccc(Cl)cc2F)nnc1-c1cc2occc2n1C | inactive: -22%
40 | COc1ccc(N2CC(C(=O)Nc3nnc(SCC(=O)NC(C)(C)C)s3)CC2=O)cc1 (stereo not given) | inconclusive: -43.9%
41 | Cc1nc2ccc(S(=O)(=O)NCC(=O)N(C)Cc3ccccc3)cc2s1 | inconclusive: -40.1%
42 | CCc1ccc(OCC(=O)N2c3ccccc3CCc3ccccc32)cc1 | inactive: -3.45%
43 | Cc1oc2c(c(C)cc3oc(=O)c(CC(=O)NCCc4ccccc4F)c(C)c32)c1C | inconclusive: -49.2%
44 | CCc1ccc(NC(=O)CN2CCN(Cc3ccccc3)S2(=O)=O)cc1 | inactive: 21.8%

Row | SMILES | activity change, negative = inhibition
45 | CCN(c1ccccc1)S(=O)(=O)c1ccc(C(=O)Nc2nnc(-c3ccco3)o2)cc1 | active: -77.2%
46 | CC(=O)Nc1ccc(SCC(=O)N2CCN(S(=O)(=O)c3ccccc3)CC2)cc1 | inactive: -25.3%
47 | CN1C/C(=C/c2ccsc2)C(=O)/C(=C/c2ccsc2)C1 | active: -85.7%
48 | CN(C)/N=C/C=C1\CCC/C(=C\c2ccc(F)c(F)c2)C1=O | inconclusive: -53.5%
49 | COc1ccc(CN2CCN(C(=O)Cn3ncn4cccc4c3=O)CC2)c(OC)c1OC | active: -63.9%
50 | COc1cc2c(c(OC)c1OC)-c1ccc(OC)c(=O)cc1[C@@H](N(C)CC#CCO)CC2 | inconclusive: -48.5%
51 | CCOc1ccc(N(CC(=O)N2CCN(c3ccccc3OC)CC2)S(=O)(=O)c2ccc(F)cc2)cc1 | inconclusive: -42.3%
52 | CCc1noc(N)c1C(=O)Nc1ccc(Cl)cc1 | inconclusive: -44.3%
53 | CC(OC(=O)c1cc2c(s1)CCCCC2)C(=O)NC(N)=O (stereo not given) | inactive: -32.9%
54 | COCCCNc1nnc(Cc2ccc(Cl)cc2)c(=O)[nH]1 | active: -74.9%
55 | Clc1ccc(-c2noc3ncnc(NCCCN4CCN(c5ccccc5)CC4)c23)cc1 | inconclusive: -46.6%
56 | COc1ccc(C(CC(=O)O)NC(=O)c2ccccc2[N+](=O)[O-])cc1 (stereo not given) | inconclusive: -43.4%
57 | CCOC(=O)N1CCc2c(sc(NCc3ccc(OCC)cc3)c2C(=O)Nc2ccc(OC)cc2OC)C1 | active: -80%
58 | C#CCn1cc(/C=N/Nc2nc3ccccc3[nH]2)c2ccccc21 | active: -69.1%
59 | CC(C)c1ccc(NC(=O)N2CCN(S(=O)(=O)c3ccccc3)CC2)cc1 | inconclusive: -41.8%
60 | COc1ccc(OC2CCN(S(=O)(=O)c3ccc(OC)cc3)CC2)cc1 | inconclusive: -44.4%
61 | COC(=O)c1ccc(Cl)c(NC(=O)CN(c2ccccc2)S(=O)(=O)c2ccc(OC)cc2)c1 | inconclusive: -46.8%
62 | O=C(COc1ccccc1Cl)NCC(c1cccs1)N1CCOCC1 (stereo not given) | inconclusive: -58%
63 | O=C(COc1ccccc1-c1ccccc1)N/N=C/c1cccnc1 | inconclusive: -44.7%
64 | CC(/C=N/N1CCN(Cc2ccccc2)CC1)=C\c1ccccc1 | active: -104%
65 | Cc1ccc(NC(=O)C2CCCN(S(=O)(=O)c3ccc(-n4cnnn4)cc3)C2)cc1 (stereo not given) | inactive: -26.2%
66 | O=C(NCC1CCCO1)C(c1ccc(F)cc1)N(C(=O)Cn1nnc(-c2ccc(F)cc2)n1)c1cccc(O)c1 (stereo not given) | inconclusive: -50.1%

Single entries from above:
`C#CCn1cc(/C=N/Nc2nc3ccccc3[nH]2)c2ccccc21` – activity change, negative = inhibition: active: -69.1%
`CCc1noc(N)c1C(=O)Nc1ccc(Cl)cc1` – activity change, negative = inhibition: inconclusive: -44.3%

(more compounds)

Row | SMILES | activity change, negative = inhibition
67 | COc1ccccc1CN(CC(=O)NCC1CCCO1)C(=O)CNS(=O)(=O)c1ccc(C)cc1 (stereo not given) | inconclusive: -54.2%
68 | Cc1cccc(S(=O)Cc2ccc(C(=O)NC3CCN(Cc4ccccc4)CC3)o2)c1 (stereo not given) | inconclusive: -49.2%
69 | CCOC(=O)c1cc2cc(OC)ccc2[nH]1 | inactive: 18.9%
70 | CCCC(=O)N1CCN(c2nc3ccccc3s2)CC1 | inconclusive: 0%
71 | Cc1cccc(Cn2ncc(Cl)c(Cl)c2=O)c1 | active: -94.4%
72 | Cc1cc(C)c(-c2csc(NC(=O)/C=C/c3cccs3)n2)c(C)c1 | active: -100%
73 | O=C(Nc1ccc(NC(=O)c2ccc3c(c2)OCCO3)cc1)c1ccccc1 | inconclusive: -59%
74 | Cc1ccc(S(=O)(=O)N(C)CCCC(=O)Nc2cccc3ccccc23)cc1 | inconclusive: -50.1%
75 | CC(C)NC(=O)N1[C@@H]2CN(C(=O)c3ccc(F)cc3)c3ccccc3[C@@H]2[C@@H]1CO | inactive: -6.15%
76 | Cc1ccc(C(=O)Nc2nc(-c3ccccn3)cs2)s1 | active: -99.6%
77 | CC(/C=N/Nc1nnc(C)c(=O)[nH]1)=C\c1ccccc1 | inactive: -7.15%
78 | COc1cccc(C(=O)Nc2c3c(nc4c2CCC4)CCCC3)c1 | inconclusive: -56.9%
79 | O=C(CCCN1C(=O)/C(=C/c2cccs2)SC1=S)Nc1cccnc1 | active: -98.1%
80 | CCCc1nc(C)cc(N2CCN(c3ccccc3)CC2)n1 | inconclusive: -57.8%
81 | Cc1ccc(S(=O)(=O)N(C)C)cc1NC(=S)Nc1ccc2cn[nH]c2c1 | active: -66.9%
82 | O=C(NC1CCCCC1)C(Nc1ccccc1)c1ccccc1F (stereo not given) | inconclusive: -42.9%
83 | O=C(Cc1ccc(-n2c(=O)[nH]c3ccccc3c2=O)cc1)N1CCN(c2cccc(Cl)c2)CC1 | inconclusive: -48.8%
84 | CCOc1ccc(NC(=O)CN2C(=O)S/C(=C/c3cccn3C)C2=O)cc1 | inconclusive: -49.1%
85 | Cc1nn(-c2ccc([N+](=O)[O-])cc2)c2c1C(c1cccc(Br)c1)N1C(=N2)C(=O)Nc2ccccc21 (stereo not given) | inconclusive: -55.4%

Some of the entries above in a different format:
Row,SMILES,"activity change, negative = inhibition"
30,COc1cc(-c2noc(CN3CCN(c4ccccc4)CC3)n2)cc(OC)c1OC,inactive: 3.07%
31,CC1=CC(C)(C)N2C(=O)C3(NCCc4c3[nH]c3ccccc43)c3cccc1c32 (stereo not given),inconclusive: -43.3%
32,COc1cccc(Nc2ncnc3ccc(Br)cc23)c1,inconclusive: -44.5%
33,COc1cccc(NC(=O)CSc2nc3c(oc4ccccc43)c(=O)n2Cc2ccco2)c1,inconclusive: -46.3%
